Reference: PubChem BioAssay AID540276 (National Center for Advancing Translational Sciences (NCATS), 2011)
In all, about 300,000 compounds went through this assay and about 5,400 (1.8%) were called active. Inconclusive results, whose numbers are uncertain, are shown with a selection of clear calls. Calls follow the shape of the full dose curve; tested in HEK293 cells. A potency beside an inconclusive call is a rough fit, not a confirmed value.

experiment: qHTS for inhibitors of binding or entry into cells for Marburg Virus; details: Marburg virus pseudotyped entry inhibition, cell reporter; series mostly up to 37.8 µM
Potency is read from the fitted curve at half-maximal effect.

SMILES	Potency
CCOC(=O)c1c(-c2ccc(C)o2)csc1NC(=O)COC(=O)c1ccc(NC(N)=O)cc1	inconclusive: 29.1 µM [inhibitor, single point]
COc1ccc(C(=O)OCC[N+]2(C)CCCCC2)cc1	inactive
COc1ccc(N2CCN(C(=O)CN(C)S(=O)(=O)c3cccs3)CC2)cc1	inactive
Cc1ccccc1Cn1ccc(NC(=O)c2nc3ncccn3n2)n1	inactive
C[C@H](NC(=O)c1ccco1)C(=O)Nc1cccc([N+](=O)[O-])c1	inactive
COc1ccc(NC(=O)CSc2c3c(nc4ccccc24)CCC3)c(OC)c1	active: 2.24 µM
CCOC(=O)c1ccc(S(=O)(=O)N2CCC(C(=O)Nc3nnc(C)o3)CC2)cc1	inactive
C=CCSc1nnc(-c2sc(-c3ccccc3)nc2C)n1C	inactive
CC1C(C#N)=C(SCC(N)=O)NC2=C1C(=O)CC(C)(C)C2 (stereo not drawn)	inconclusive: 35.5 µM [activator, partial curve, poor fit]
O=C(/C=C/Nc1nccs1)C(F)(F)Cl	inconclusive: 28.2 µM [activator, single point]
Cc1cccc(CSC2=NCCN2S(=O)(=O)c2ccc(F)cc2)c1	inconclusive: 1.12 µM [inhibitor, partial curve, poor fit]
COc1ccc(CC(=O)Nc2cccc(-c3ccc4nnc(C)n4n3)c2)cc1	inconclusive: 0.708 µM [inhibitor, full curve, poor fit]
COc1ccc(C(=O)c2oc3ccccc3c2NC(C)=O)cc1	inconclusive: 35.5 µM [activator, partial curve, poor fit]
COC(=O)c1ccc(COC(=O)CCC(=O)c2cccs2)cc1	inconclusive: 11.2 µM [activator, partial curve, poor fit]
COc1ccc(C(=O)Nc2cc(OC)cc(OC)c2)cc1	inactive
Cc1ccc(OCCn2c(NC(=O)c3ccco3)nc3ccccc32)cc1	inconclusive: 3.98 µM [inhibitor, single point]
CCc1ccc(C(=O)Nc2cc(C)on2)o1	inconclusive: 22.4 µM [activator, single point]
Cc1cc2c(cc1C)CSC(c1ccc3ccccc3c1O)SC2	active: 3.66 µM
CCOc1ccc(S(=O)(=O)N2CC(=O)Nc3ccccc32)cc1	inconclusive: 10 µM [inhibitor, single point]
CC(=O)N1CCc2c(sc(NC(=O)C3CCCN3S(=O)(=O)c3cccs3)c2C(N)=O)C1 (stereo not drawn)	inactive
CC(CN1CCOCC1)C(=O)O (stereo not drawn)	inactive
Cc1ccc(NC(=O)COC(=O)Cn2nc(C)c([N+](=O)[O-])c2C)c([N+](=O)[O-])c1	inconclusive: 18.4 µM [activator, single point]
COc1ccc(N=Nc2c(N)nn(C)c2N)cc1	inconclusive: 1 µM [activator, full curve, poor fit]
CCCCn1c(N)c(N(CC(C)C)C(=O)c2cc(-c3ccc(F)cc3)nc3ccccc23)c(=O)[nH]c1=O	inconclusive: 14.1 µM [inhibitor, single point]
O=C(Nc1ccccc1Cl)NC1(C(=O)NCCCN2CCOCC2)CCCCC1	inactive

Reprinted from the results shown (4 entries):
SMILES	Potency
CC1C(C#N)=C(SCC(N)=O)NC2=C1C(=O)CC(C)(C)C2 (stereo not drawn)	inconclusive: 35.5 µM [activator, partial curve, poor fit]
O=C(/C=C/Nc1nccs1)C(F)(F)Cl	inconclusive: 28.2 µM [activator, single point]
Cc1cccc(CSC2=NCCN2S(=O)(=O)c2ccc(F)cc2)c1	inconclusive: 1.12 µM [inhibitor, partial curve, poor fit]
COc1ccc(CC(=O)Nc2cccc(-c3ccc4nnc(C)n4n3)c2)cc1	inconclusive: 0.708 µM [inhibitor, full curve, poor fit]

The list continues.

SMILES	Potency
Cc1ccc(-n2c(=O)c3c(cnn3C)n(CC(=O)Nc3c(C)cccc3C)c2=O)cc1	inactive
CC1(C)Cc2c(cnn2-c2cccc(F)c2)C(NC(=O)C2CCOCC2)C1 (stereo not drawn)	inactive
Cc1cc(-c2nn3c(-c4ccccc4)nnc3s2)c2ccccc2n1	inactive
COC(=O)Nc1ccc(Cc2ccncc2)cc1	inactive
NS(=O)(=O)c1ccc(CCNC(=O)CCCn2c(SCC(=O)N3CCCC3)nc3ccsc3c2=O)cc1	inconclusive: 10 µM [activator, partial curve, poor fit]
CC(=NCCCn1ccnc1)c1c(-c2ccccc2)[nH]n(-c2nc3ccccc3s2)c1=O	inconclusive: 23.1 µM [inhibitor, single point]
COc1cccc(CC(=O)N(C)C2CCCN(Cc3ccccc3F)C2)c1 (stereo not drawn)	inconclusive: 1.26 µM [inhibitor, single point]
Cc1cc(C)n2cc(CSc3ccccn3)nc2n1	inactive
CCOC(=O)C1=C(CN2CCC(C)CC2)NC(=O)NC1c1ccc(Cl)cc1 (stereo not drawn)	inconclusive: 29.1 µM [inhibitor, single point]
Cc1onc(-c2c(F)cccc2Cl)c1C(=O)OCC(=O)c1c(N)n(C)c(=O)n(C)c1=O	inconclusive: 17.8 µM [inhibitor, single point]
CCCOc1ccc(N2C(=O)CC(NCCc3ccc(S(N)(=O)=O)cc3)C2=O)cc1 (stereo not drawn)	inactive
CCOC(=O)c1ccc(NC(=O)N2CCN(CCc3ccccc3)CC2)cc1	inconclusive: 14.6 µM [activator, partial curve, poor fit]
COc1cc(/C=C/c2ccc3cccc(O)c3n2)cc(Br)c1OC	inconclusive: 35.5 µM [inhibitor, single point]
COC(=O)C1(C(=O)OC)CC(CO)C(=O)[C@H]1c1ccccc1 (stereo partly drawn)	inactive
Oc1c(C=Nc2ccc(Cl)cn2)sc2ccccc12	inconclusive: 6.31 µM [activator, single point]
Cc1ccc(S(=O)(=O)N(CC(=O)N2CCN(c3ccccc3F)CC2)C2CCCCC2)cc1	inconclusive: 25.9 µM [inhibitor, single point]
Cc1cccc(C(=O)Nc2cccc(C(=O)N3CCOCC3)c2)c1	inconclusive: 1.16 µM [inhibitor, single point]
Cc1cc(C#N)c(C)n1-c1cc(C(F)(F)F)ccc1N1CCOCC1	inconclusive: 23.1 µM [inhibitor, single point]
Cc1cc(Nc2ccccc2Cl)n2nnnc2n1	inconclusive: 1.26 µM [inhibitor, single point]
COc1ccc(C(=O)Nc2ccc(C)c(S(=O)(=O)N3CCCCCC3)c2)cc1	inconclusive: 8.91 µM [inhibitor, partial curve, poor fit]
O=C(O)c1ccc2[nH]c3c(c2c1)CCCC3	inconclusive: 1 µM [activator, single point]
O=C(Nc1ccc(N2CCCC2)c(Cl)c1)c1ccc([N+](=O)[O-])o1	active: 8.91 µM
COc1ccc(CCNC(=O)CN2C(=O)NC(Cc3c[nH]c4ccccc34)C2=O)cc1 (stereo not drawn)	inactive
O=C(COC(=O)c1cc2ccccc2oc1=O)Nc1cccc(Br)c1	inactive
Cc1ccc(-c2nnc(CSc3nnc(COc4ccccc4)n3-c3ccccc3)o2)cc1	inconclusive: 14.6 µM [inhibitor, partial curve, poor fit]

SMILES	Potency
COc1cccc(CNC(=O)c2oc3ccc4c(c3c2C)C(=O)CC(C)(C)O4)c1OC	inactive
COc1ccc(CCNC(=O)CCCCn2c(=O)c3ccccc3n(Cc3ccc(Cl)cc3)c2=O)cc1OC	inconclusive: 0.562 µM [inhibitor, full curve, poor fit]
c1ccc2c(NCC3CCCO3)nc(-c3ccncc3)nc2c1 (stereo not drawn)	inconclusive: 11.2 µM [inhibitor, partial curve]
COc1ccc(C2CC(c3cccs3)=NN2c2nc(C)c(C(C)=O)s2)cc1OC (stereo not drawn)	inconclusive: 1 µM [inhibitor, full curve, poor fit]
Cc1cc(N2CCN(C)CC2)nc2ccc(NC(=O)c3ccc4c(c3)OCO4)cc12	active: 4.11 µM
Cc1ccc(NC(=O)C(=O)NCCCN2CC(C(=O)O)CC2=O)cc1 (stereo not drawn)	inactive
COc1ccc(/C=C/C(=O)c2cc(F)ccc2OC(=O)c2ccccc2)cc1OC	inconclusive: 2.24 µM [inhibitor, full curve, poor fit]
Cc1ccc(Cl)c(NC(=O)CCl)c1Cl	active: 6.31 µM
O=C(Cn1cccn1)N1CCCC(N2CCN(c3cccc(C(F)(F)F)c3)CC2)C1 (stereo not drawn)	inactive
COc1ccc(CNC(=O)c2cc3c(=O)n4cccc(C)c4nc3s2)cc1	inactive
COc1cccc(CNC(=O)COc2cccc(-n3cnnn3)c2)c1	inconclusive: 35.5 µM [activator, single point]
COc1ccccc1C(=O)COC(=O)c1ccc(N(C)C)cc1	inconclusive: 3.55 µM [inhibitor, single point]
CC1CCCCN1c1nc(-c2ccncc2)nc2ccccc12 (stereo not drawn)	inconclusive: 8.91 µM [inhibitor, partial curve, poor fit]
COc1ccc(/C=C2\SC(=S)N(CCC(=O)NCCCN3CCOCC3)C2=O)cc1	inconclusive: 35.5 µM [inhibitor, single point]
CCOc1ccc(S(=O)(=O)NCCC(=O)NC2CCC(C)CC2)cc1 (stereo not drawn)	inconclusive: 8.91 µM [inhibitor, full curve, poor fit]
Cc1ccc(-n2nc(CO)c(C(=O)NCCCCc3ccccc3)n2)cc1	inconclusive: 6.31 µM [inhibitor, single point]
N#Cc1nc(-c2cccc3ccccc23)oc1NCC1CCCO1 (stereo not drawn)	inactive
CCOc1ccc(-c2nn(-c3ccccc3)cc2C2NC(=O)NC(C)=C2C(=O)OC(C)C)cc1C (stereo not drawn)	inconclusive: 5.01 µM [inhibitor, partial curve, poor fit]
CCCc1ccc(-c2csc(NC(=O)Cc3cccs3)n2)cc1	inactive
COC(C(=O)NNC(=O)Cc1ccc(Cl)cc1)c1ccccc1 (stereo not drawn)	inactive
CC(C)(C)NC(=O)COC(=O)c1c2c(nc3ccccc13)CCC2	inactive
CCCC(=O)Nc1ccc(C(=O)NNC(=S)NC(=O)c2cccs2)cc1	inactive
Cc1ccc2c(c1)C(=O)C(=O)N2Cc1ccc(OC(C)C)cc1	inconclusive: 7.94 µM [inhibitor, partial curve, poor fit]
